From US20160289326A1
These are yes or no findings as the source states them, for the method shown. Some entries that bind do so weakly or less than the wild type.

Chains of the proteins cited; added tags and fusions are not shown. Residues count along the entry.
UniProt Q07954, residues 3332-3778: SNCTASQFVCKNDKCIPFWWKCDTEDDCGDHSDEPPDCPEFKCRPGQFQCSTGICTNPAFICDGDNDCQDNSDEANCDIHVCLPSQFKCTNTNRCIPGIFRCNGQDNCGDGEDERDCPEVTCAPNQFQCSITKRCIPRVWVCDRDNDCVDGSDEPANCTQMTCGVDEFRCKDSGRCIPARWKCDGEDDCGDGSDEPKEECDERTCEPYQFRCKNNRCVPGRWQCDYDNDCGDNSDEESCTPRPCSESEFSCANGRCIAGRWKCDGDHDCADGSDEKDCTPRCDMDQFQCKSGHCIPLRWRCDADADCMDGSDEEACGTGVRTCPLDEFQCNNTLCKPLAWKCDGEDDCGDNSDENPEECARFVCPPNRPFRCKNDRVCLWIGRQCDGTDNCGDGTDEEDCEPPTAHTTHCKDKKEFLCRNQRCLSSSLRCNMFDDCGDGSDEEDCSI

Biological target: cell surface calreticulin (human) (human) (UniProt P27797)
Experiment: flow cytometry on live staurosporine-treated Molm 13 cells, secondary anti-Fc antibody

binding: binds
Substance: LRP1 cluster IV-Fc protein (from UniProt Q07954 3332-3778) (Fc fusion)
